PubChem BioAssay AID602196 – INSERM, 2012

Aim: 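Genes whose knock-down alters cisplatin killing of lung cancer cells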
Cell system: human A549 lung cancer cells
Reagents: siRNA pair against human genes
Time to read-out: 48 h transfection before cisplatin; time from cisplatin to read-out not stated
Challenge: cisplatin at a dose killing half of control-siRNA cells; exact dose and duration not given
Measured: 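Cisplatin cell death as a shift from the 50% death seen with control siRNA; siRNAs toxic or growth-blocking alone scored 0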
Reading the numbers: two-siRNA summed score (-2 to +2): higher = both siRNAs protect from cisplatin killing; -2 means both sensitise
Rule for the call: 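siRNAs harmful alone (LDH or WST-1) get 0; others get +1 for less and -1 for more cisplatin killing; genes are active when the two siRNAs give the same sign, summing to ±2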
Calls: active = both siRNAs shift cisplatin killing the same way; inactive = no consistent shift, or siRNA harmful alone
In all, the deposit lists about 23,000 reagents; this is an unselected part. 455 of them (2%) were called active. 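Active includes both protection and sensitisation; some change values fall well beyond the stated -50 to +50 range.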 The numbers tell different reagents against one gene apart. Further read-outs or replicates are left out here. No sequences are given here. Not given: the amount of reagent.

two-siRNA summed score (-2 to +2), by gene and reagent
MAP1LC3C: #1 -1 inactive
TAF1: #1 0 inactive
LOC124976: #1 0 inactive
LOC390226: #1 0 inactive
FSD1L: #1 0 inactive; #2 0 inactive
CCDC17: #1 0 inactive

Copied from above for reference:
two-siRNA summed score (-2 to +2), by gene and reagent
FSD1L: #1 0 inactive; #2 0 inactive

Further reagents follow:
two-siRNA summed score (-2 to +2), by gene and reagent
PTGER3: #1 0 inactive; #2 0 inactive
LOC401264: #1 0 inactive
CCDC86: #1 0 inactive
IRAK2: #1 0 inactive
KLF11: #1 -1 inactive
LOC284352: #1 0 inactive
RPS28: #1 0 inactive
ZMYM6: #1 0 inactive
CRHBP: #1 0 inactive
LOC440759: #1 1 inactive
LOC442449: #1 0 inactive
CUL4A: #1 1 inactive
ACKR1: #1 -1 inactive
BCL6: #1 0 inactive
LOC389767: #1 0 inactive
